In article PMC11043401:
No constants are given. Whether binding was seen depends on the method and setting. For some of these results: A result given as binding can be weak or reduced; the word gives no strength. For some of these results: Where a sequence is shown, tags or fusion partners need not be part of it. For some of these results: Binding seen in cells or lysates may run through a third protein. Values belong to the molecule of their own block, whether it stands above or below them.

By UniProt entry, the sequences of proteins in these tests, tags left out. Where a name states a change or a piece, a line headed by the entry shows the natural chain unless it says otherwise.
UniProt Q9SIZ2: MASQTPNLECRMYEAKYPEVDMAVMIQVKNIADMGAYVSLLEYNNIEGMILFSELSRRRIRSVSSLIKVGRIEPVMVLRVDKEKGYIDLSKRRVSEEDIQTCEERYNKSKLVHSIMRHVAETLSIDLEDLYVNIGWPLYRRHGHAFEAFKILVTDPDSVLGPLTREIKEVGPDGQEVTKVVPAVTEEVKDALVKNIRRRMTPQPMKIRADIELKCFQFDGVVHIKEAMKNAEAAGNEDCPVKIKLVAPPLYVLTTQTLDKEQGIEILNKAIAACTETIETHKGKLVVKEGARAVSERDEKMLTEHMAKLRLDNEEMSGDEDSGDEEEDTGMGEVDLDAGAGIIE

Experiments:
[1] = target: T1, tandem affinity purification cMyc-SPA1 (TAP-SPA1) (Arabidopsis thaliana) (UniProt Q9SYX2); experiment: co-IP; cytosolic proteins of TAP-SPA1 seedlings (dark or 4 h white light) incubated with anti-cMyc; blots anti-cMyc and anti-eIF2α
T1 sequence: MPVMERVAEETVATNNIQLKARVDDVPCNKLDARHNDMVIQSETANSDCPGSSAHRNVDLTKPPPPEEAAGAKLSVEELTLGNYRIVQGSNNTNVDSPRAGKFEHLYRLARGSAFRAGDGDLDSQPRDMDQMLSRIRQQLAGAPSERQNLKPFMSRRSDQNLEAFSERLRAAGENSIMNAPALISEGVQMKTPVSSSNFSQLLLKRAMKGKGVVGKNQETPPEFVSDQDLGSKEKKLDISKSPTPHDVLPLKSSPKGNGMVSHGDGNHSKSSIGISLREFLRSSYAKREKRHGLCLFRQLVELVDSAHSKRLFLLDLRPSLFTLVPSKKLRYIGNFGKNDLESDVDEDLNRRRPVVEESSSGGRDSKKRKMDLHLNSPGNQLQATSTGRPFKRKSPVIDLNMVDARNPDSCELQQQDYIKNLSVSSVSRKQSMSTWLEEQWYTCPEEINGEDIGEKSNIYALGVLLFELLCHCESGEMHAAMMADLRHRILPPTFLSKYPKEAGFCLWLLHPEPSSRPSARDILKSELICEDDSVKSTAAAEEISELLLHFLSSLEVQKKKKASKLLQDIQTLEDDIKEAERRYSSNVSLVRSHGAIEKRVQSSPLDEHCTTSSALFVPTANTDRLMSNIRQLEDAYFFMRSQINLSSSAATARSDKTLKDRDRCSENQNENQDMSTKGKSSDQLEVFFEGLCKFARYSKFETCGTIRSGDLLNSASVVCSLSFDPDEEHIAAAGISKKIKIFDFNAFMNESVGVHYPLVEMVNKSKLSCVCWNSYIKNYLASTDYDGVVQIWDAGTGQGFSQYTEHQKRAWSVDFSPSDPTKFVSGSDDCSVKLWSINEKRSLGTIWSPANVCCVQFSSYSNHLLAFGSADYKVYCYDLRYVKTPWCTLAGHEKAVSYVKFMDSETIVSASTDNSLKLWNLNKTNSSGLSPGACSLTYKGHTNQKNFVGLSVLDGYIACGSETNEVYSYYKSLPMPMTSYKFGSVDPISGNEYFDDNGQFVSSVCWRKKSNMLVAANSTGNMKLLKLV

[2] = target: eIF2α.2 full length fused to the GAL4 DNA binding domain (Arabidopsis thaliana) (UniProt Q9SIZ2); experiment: two-hybrid; GAL4 system; eIF2α homologs on the DNA-binding domain (pGBT9, bait), SPA1 forms on the activation domain (pGAD424, prey); yeast AH109; growth on SD-Leu-Trp-His, 30 °C
[3] = target: eIF2α.2-GFP (wild-type form) (Arabidopsis thaliana) (UniProt Q9SIZ2); experiment: co-IP; total extracts of eIF2α.1-GFP or eIF2α.2-GFP seedlings mixed with extract of TAP-SPA1 seedlings; GFP-Trap; blots anti-cMyc and anti-GFP; four-day-old etiolated seedlings illuminated with white light for 4 h
[4] = target: eIF2α.2-GFP (wild-type form) (Arabidopsis thaliana) (UniProt Q9SIZ2); experiment: condition: only etiolated seedlings kept in the dark; co-IP; as a3, but four-day-old etiolated seedlings kept in the dark
[5] = target: eIF2α.2 of the pull-down assay of Supplementary Fig. 3 (Arabidopsis thaliana) (UniProt Q9SIZ2); experiment: pull-down; pull-down of Supplementary Fig. 3; format not told in the text shown
[6] = target: eIF2α.2-YC (Arabidopsis thaliana) (UniProt Q9SIZ2); experiment: split reporter; BiFC; SPA1-YN and eIF2α-YC co-transfected into Arabidopsis Col-0 protoplasts; light condition

binding [1]: binds
Molecule: native eIF2α

binding [2]: binds
B1: SPA1 kinase domain fused to the GAL4 activation domain (domain or fragment, UniProt Q9SYX2 188-529)
chain: VQMKTPVSSSNFSQLLLKRAMKGKGVVGKNQETPPEFVSDQDLGSKEKKLDISKSPTPHDVLPLKSSPKGNGMVSHGDGNHSKSSIGISLREFLRSSYAKREKRHGLCLFRQLVELVDSAHSKRLFLLDLRPSLFTLVPSKKLRYIGNFGKNDLESDVDEDLNRRRPVVEESSSGGRDSKKRKMDLHLNSPGNQLQATSTGRPFKRKSPVIDLNMVDARNPDSCELQQQDYIKNLSVSSVSRKQSMSTWLEEQWYTCPEEINGEDIGEKSNIYALGVLLFELLCHCESGEMHAAMMADLRHRILPPTFLSKYPKEAGFCLWLLHPEPSSRPSARDILKSELI

binding [3]: binds
binding [4]: no binding
B2: tandem affinity purification cMyc-SPA1 (TAP-SPA1) (protein, UniProt Q9SYX2 1-1029)
chain: MPVMERVAEETVATNNIQLKARVDDVPCNKLDARHNDMVIQSETANSDCPGSSAHRNVDLTKPPPPEEAAGAKLSVEELTLGNYRIVQGSNNTNVDSPRAGKFEHLYRLARGSAFRAGDGDLDSQPRDMDQMLSRIRQQLAGAPSERQNLKPFMSRRSDQNLEAFSERLRAAGENSIMNAPALISEGVQMKTPVSSSNFSQLLLKRAMKGKGVVGKNQETPPEFVSDQDLGSKEKKLDISKSPTPHDVLPLKSSPKGNGMVSHGDGNHSKSSIGISLREFLRSSYAKREKRHGLCLFRQLVELVDSAHSKRLFLLDLRPSLFTLVPSKKLRYIGNFGKNDLESDVDEDLNRRRPVVEESSSGGRDSKKRKMDLHLNSPGNQLQATSTGRPFKRKSPVIDLNMVDARNPDSCELQQQDYIKNLSVSSVSRKQSMSTWLEEQWYTCPEEINGEDIGEKSNIYALGVLLFELLCHCESGEMHAAMMADLRHRILPPTFLSKYPKEAGFCLWLLHPEPSSRPSARDILKSELICEDDSVKSTAAAEEISELLLHFLSSLEVQKKKKASKLLQDIQTLEDDIKEAERRYSSNVSLVRSHGAIEKRVQSSPLDEHCTTSSALFVPTANTDRLMSNIRQLEDAYFFMRSQINLSSSAATARSDKTLKDRDRCSENQNENQDMSTKGKSSDQLEVFFEGLCKFARYSKFETCGTIRSGDLLNSASVVCSLSFDPDEEHIAAAGISKKIKIFDFNAFMNESVGVHYPLVEMVNKSKLSCVCWNSYIKNYLASTDYDGVVQIWDAGTGQGFSQYTEHQKRAWSVDFSPSDPTKFVSGSDDCSVKLWSINEKRSLGTIWSPANVCCVQFSSYSNHLLAFGSADYKVYCYDLRYVKTPWCTLAGHEKAVSYVKFMDSETIVSASTDNSLKLWNLNKTNSSGLSPGACSLTYKGHTNQKNFVGLSVLDGYIACGSETNEVYSYYKSLPMPMTSYKFGSVDPISGNEYFDDNGQFVSSVCWRKKSNMLVAANSTGNMKLLKLV

binding [5]: binds
B3: SPA1 of the pull-down assay of Supplementary Fig. 3 (protein, UniProt Q9SYX2 1-1029)
chain: MPVMERVAEETVATNNIQLKARVDDVPCNKLDARHNDMVIQSETANSDCPGSSAHRNVDLTKPPPPEEAAGAKLSVEELTLGNYRIVQGSNNTNVDSPRAGKFEHLYRLARGSAFRAGDGDLDSQPRDMDQMLSRIRQQLAGAPSERQNLKPFMSRRSDQNLEAFSERLRAAGENSIMNAPALISEGVQMKTPVSSSNFSQLLLKRAMKGKGVVGKNQETPPEFVSDQDLGSKEKKLDISKSPTPHDVLPLKSSPKGNGMVSHGDGNHSKSSIGISLREFLRSSYAKREKRHGLCLFRQLVELVDSAHSKRLFLLDLRPSLFTLVPSKKLRYIGNFGKNDLESDVDEDLNRRRPVVEESSSGGRDSKKRKMDLHLNSPGNQLQATSTGRPFKRKSPVIDLNMVDARNPDSCELQQQDYIKNLSVSSVSRKQSMSTWLEEQWYTCPEEINGEDIGEKSNIYALGVLLFELLCHCESGEMHAAMMADLRHRILPPTFLSKYPKEAGFCLWLLHPEPSSRPSARDILKSELICEDDSVKSTAAAEEISELLLHFLSSLEVQKKKKASKLLQDIQTLEDDIKEAERRYSSNVSLVRSHGAIEKRVQSSPLDEHCTTSSALFVPTANTDRLMSNIRQLEDAYFFMRSQINLSSSAATARSDKTLKDRDRCSENQNENQDMSTKGKSSDQLEVFFEGLCKFARYSKFETCGTIRSGDLLNSASVVCSLSFDPDEEHIAAAGISKKIKIFDFNAFMNESVGVHYPLVEMVNKSKLSCVCWNSYIKNYLASTDYDGVVQIWDAGTGQGFSQYTEHQKRAWSVDFSPSDPTKFVSGSDDCSVKLWSINEKRSLGTIWSPANVCCVQFSSYSNHLLAFGSADYKVYCYDLRYVKTPWCTLAGHEKAVSYVKFMDSETIVSASTDNSLKLWNLNKTNSSGLSPGACSLTYKGHTNQKNFVGLSVLDGYIACGSETNEVYSYYKSLPMPMTSYKFGSVDPISGNEYFDDNGQFVSSVCWRKKSNMLVAANSTGNMKLLKLV

binding [6]: binds
B4: SPA1-YN (protein, UniProt Q9SYX2 1-1029)
chain: MPVMERVAEETVATNNIQLKARVDDVPCNKLDARHNDMVIQSETANSDCPGSSAHRNVDLTKPPPPEEAAGAKLSVEELTLGNYRIVQGSNNTNVDSPRAGKFEHLYRLARGSAFRAGDGDLDSQPRDMDQMLSRIRQQLAGAPSERQNLKPFMSRRSDQNLEAFSERLRAAGENSIMNAPALISEGVQMKTPVSSSNFSQLLLKRAMKGKGVVGKNQETPPEFVSDQDLGSKEKKLDISKSPTPHDVLPLKSSPKGNGMVSHGDGNHSKSSIGISLREFLRSSYAKREKRHGLCLFRQLVELVDSAHSKRLFLLDLRPSLFTLVPSKKLRYIGNFGKNDLESDVDEDLNRRRPVVEESSSGGRDSKKRKMDLHLNSPGNQLQATSTGRPFKRKSPVIDLNMVDARNPDSCELQQQDYIKNLSVSSVSRKQSMSTWLEEQWYTCPEEINGEDIGEKSNIYALGVLLFELLCHCESGEMHAAMMADLRHRILPPTFLSKYPKEAGFCLWLLHPEPSSRPSARDILKSELICEDDSVKSTAAAEEISELLLHFLSSLEVQKKKKASKLLQDIQTLEDDIKEAERRYSSNVSLVRSHGAIEKRVQSSPLDEHCTTSSALFVPTANTDRLMSNIRQLEDAYFFMRSQINLSSSAATARSDKTLKDRDRCSENQNENQDMSTKGKSSDQLEVFFEGLCKFARYSKFETCGTIRSGDLLNSASVVCSLSFDPDEEHIAAAGISKKIKIFDFNAFMNESVGVHYPLVEMVNKSKLSCVCWNSYIKNYLASTDYDGVVQIWDAGTGQGFSQYTEHQKRAWSVDFSPSDPTKFVSGSDDCSVKLWSINEKRSLGTIWSPANVCCVQFSSYSNHLLAFGSADYKVYCYDLRYVKTPWCTLAGHEKAVSYVKFMDSETIVSASTDNSLKLWNLNKTNSSGLSPGACSLTYKGHTNQKNFVGLSVLDGYIACGSETNEVYSYYKSLPMPMTSYKFGSVDPISGNEYFDDNGQFVSSVCWRKKSNMLVAANSTGNMKLLKLV

binding [2]: binds
B5: SPA1 full length fused to the GAL4 activation domain (protein, UniProt Q9SYX2 1-1029)
chain: MPVMERVAEETVATNNIQLKARVDDVPCNKLDARHNDMVIQSETANSDCPGSSAHRNVDLTKPPPPEEAAGAKLSVEELTLGNYRIVQGSNNTNVDSPRAGKFEHLYRLARGSAFRAGDGDLDSQPRDMDQMLSRIRQQLAGAPSERQNLKPFMSRRSDQNLEAFSERLRAAGENSIMNAPALISEGVQMKTPVSSSNFSQLLLKRAMKGKGVVGKNQETPPEFVSDQDLGSKEKKLDISKSPTPHDVLPLKSSPKGNGMVSHGDGNHSKSSIGISLREFLRSSYAKREKRHGLCLFRQLVELVDSAHSKRLFLLDLRPSLFTLVPSKKLRYIGNFGKNDLESDVDEDLNRRRPVVEESSSGGRDSKKRKMDLHLNSPGNQLQATSTGRPFKRKSPVIDLNMVDARNPDSCELQQQDYIKNLSVSSVSRKQSMSTWLEEQWYTCPEEINGEDIGEKSNIYALGVLLFELLCHCESGEMHAAMMADLRHRILPPTFLSKYPKEAGFCLWLLHPEPSSRPSARDILKSELICEDDSVKSTAAAEEISELLLHFLSSLEVQKKKKASKLLQDIQTLEDDIKEAERRYSSNVSLVRSHGAIEKRVQSSPLDEHCTTSSALFVPTANTDRLMSNIRQLEDAYFFMRSQINLSSSAATARSDKTLKDRDRCSENQNENQDMSTKGKSSDQLEVFFEGLCKFARYSKFETCGTIRSGDLLNSASVVCSLSFDPDEEHIAAAGISKKIKIFDFNAFMNESVGVHYPLVEMVNKSKLSCVCWNSYIKNYLASTDYDGVVQIWDAGTGQGFSQYTEHQKRAWSVDFSPSDPTKFVSGSDDCSVKLWSINEKRSLGTIWSPANVCCVQFSSYSNHLLAFGSADYKVYCYDLRYVKTPWCTLAGHEKAVSYVKFMDSETIVSASTDNSLKLWNLNKTNSSGLSPGACSLTYKGHTNQKNFVGLSVLDGYIACGSETNEVYSYYKSLPMPMTSYKFGSVDPISGNEYFDDNGQFVSSVCWRKKSNMLVAANSTGNMKLLKLV
